Measured values taken from publication PMC12464775, “Selective and Potent Peptide Binders of RNF43 for Wnt Signaling Inhibition” (ACS Central Science, 2025).
These are yes or no findings as the source states them, for the method shown. Some binding calls cover weakened binding; strength is not graded here.

By UniProt entry, the sequences of proteins in these tests, tags left out. Residues count along the entry.
UniProt Q6UXX9, residues 22-243: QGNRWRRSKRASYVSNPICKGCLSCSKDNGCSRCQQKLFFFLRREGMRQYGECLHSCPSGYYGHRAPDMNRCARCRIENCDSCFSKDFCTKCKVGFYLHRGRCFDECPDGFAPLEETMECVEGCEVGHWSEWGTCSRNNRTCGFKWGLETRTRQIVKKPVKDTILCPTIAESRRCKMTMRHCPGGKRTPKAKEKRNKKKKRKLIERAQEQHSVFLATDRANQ

Biological target: T1, extracellular domain (ECD) of the human RNF43 protein, biotinylated (human) (UniProt Q68DV7)
T1 sequence (chain, biotin (EZ-link-NHS-PEG4-biotin), 1–2 biotin molecules per protein): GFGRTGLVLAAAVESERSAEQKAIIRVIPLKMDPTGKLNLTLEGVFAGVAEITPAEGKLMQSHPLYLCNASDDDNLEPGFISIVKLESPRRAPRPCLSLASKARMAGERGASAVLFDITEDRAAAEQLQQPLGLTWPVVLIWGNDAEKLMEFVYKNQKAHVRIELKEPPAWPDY
Test: ELISA; competition: biotinylated RNF43 on neutravidin plate; 1 nM His-tagged RSPO2 mixed with 0–2 μM DCPs, 45 min at RT; bound RSPO2 detected with HRP-conjugated His antibody; both purified

Substance: His-tagged RSPO2 (from UniProt Q6UXX9 22-243) (ligand)
- binding: binds
